Test results as given in PMC12581312, “Lung endothelial PEAR1 induces tumor cell dormancy” (Molecular Cancer, 2025).
No constants are given. Whether binding was seen depends on the method and setting. Some results given as binding are weak or reduced against the parent protein; the word gives no strength. Sequences can lack the tags named with a protein.

Biological target: T1, Human recombinant PEAR1 extracellular part (platelet and endothelial aggregation receptor 1), His-tagged (human) (UniProt Q5VY43)
T1 sequence: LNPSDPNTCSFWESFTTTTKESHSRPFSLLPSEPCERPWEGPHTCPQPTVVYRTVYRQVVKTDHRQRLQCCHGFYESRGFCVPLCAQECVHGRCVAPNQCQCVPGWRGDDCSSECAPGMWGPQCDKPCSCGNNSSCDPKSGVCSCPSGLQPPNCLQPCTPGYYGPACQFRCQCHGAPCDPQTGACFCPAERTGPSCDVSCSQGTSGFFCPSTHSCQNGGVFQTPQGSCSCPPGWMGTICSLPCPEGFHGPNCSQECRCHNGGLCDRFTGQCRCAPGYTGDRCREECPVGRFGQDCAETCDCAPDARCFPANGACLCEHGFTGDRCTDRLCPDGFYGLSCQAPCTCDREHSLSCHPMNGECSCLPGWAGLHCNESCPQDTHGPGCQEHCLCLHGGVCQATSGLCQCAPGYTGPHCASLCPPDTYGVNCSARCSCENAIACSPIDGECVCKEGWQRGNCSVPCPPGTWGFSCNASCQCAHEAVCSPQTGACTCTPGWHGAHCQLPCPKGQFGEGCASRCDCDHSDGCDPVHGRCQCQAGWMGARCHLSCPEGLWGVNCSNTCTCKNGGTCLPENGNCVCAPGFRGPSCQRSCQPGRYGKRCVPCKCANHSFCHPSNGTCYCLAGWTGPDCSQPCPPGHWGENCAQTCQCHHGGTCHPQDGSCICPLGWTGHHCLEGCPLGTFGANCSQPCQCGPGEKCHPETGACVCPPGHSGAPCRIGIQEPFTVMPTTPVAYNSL
Assay: pull-down; recombinant human PEAR1 (100 nM) immobilised on Ni-NTA magnetic beads, incubated with 100 nM recombinant human CTSD, SEMA6D or LOXL2 in 50 mM NaH2PO4, 300 mM NaCl, 20 mM imidazole, pH 8.0, 1 h at room temperature; control Ni-NTA beads; immunoblotting; both purified

binding: binds
B1: Human Sema6D extracellular part (semaphorin 6D), recombinant (domain or fragment, UniProt Q8NFY4 21-662)
chain: VSFPEDDEPLNTVDYHYSRQYPVFRGRPSGNESQHRLDFQLMLKIRDTLYIAGRDQVYTVNLNEMPKTEVIPNKKLTWRSRQQDRENCAMKGKHKDECHNFIKVFVPRNDEMVFVCGTNAFNPMCRYYRLSTLEYDGEEISGLARCPFDARQTNVALFADGKLYSATVADFLASDAVIYRSMGDGSALRTIKYDSKWIKEPHFLHAIEYGNYVYFFFREIAVEHNNLGKAVYSRVARICKNDMGGSQRVLEKHWTSFLKARLNCSVPGDSFFYFDVLQSITDIIQINGIPTVVGVFTTQLNSIPGSAVCAFSMDDIEKVFKGRFKEQKTPDSVWTAVPEDKVPKPRPGCCAKHGLAEAYKTSIDFPDETLSFIKSHPLMDSAVPPIADEPWFTKTRVRYRLTAISVDHSAGPYQNYTVIFVGSEAGMVLKVLAKTSPFSLNDSVLLEEIEAYNHAKCSAENEEDKKVISLQLDKDHHALYVAFSSCIIRIPLSRCERYGSCKKSCIASRDPYCGWLSQGSCGRVTPGMLAEGYEQDTEFGNTAHLGDCHEILPTSTTPDYKIFGGPTSDMEVSSSSVTTMASIPEITPKVIDTWRPKLTSSRKFVVQDDPNTSDFTDPLSGIPKGVRWEVQSGESNQMVHMN
